Reference: paper PMC5135138
Results are given in words; binding and its absence hold for the method and conditions named. Binding seen in cells or lysates may run through a third protein. Some entries that bind do so weakly or less than the wild type.

By UniProt entry, the sequences of proteins in these tests, tags left out.
UniProt P17778: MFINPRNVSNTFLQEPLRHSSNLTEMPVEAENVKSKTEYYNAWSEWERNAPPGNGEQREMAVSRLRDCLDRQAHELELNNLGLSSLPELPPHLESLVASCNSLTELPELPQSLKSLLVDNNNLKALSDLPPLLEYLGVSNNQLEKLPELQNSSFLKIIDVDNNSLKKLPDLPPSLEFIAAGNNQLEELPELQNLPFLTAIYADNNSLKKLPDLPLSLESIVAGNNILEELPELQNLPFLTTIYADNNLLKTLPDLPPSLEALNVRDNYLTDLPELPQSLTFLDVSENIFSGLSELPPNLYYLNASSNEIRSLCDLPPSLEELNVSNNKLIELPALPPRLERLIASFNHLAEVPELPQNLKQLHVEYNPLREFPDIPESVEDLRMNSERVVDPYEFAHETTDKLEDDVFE
UniProt P70268: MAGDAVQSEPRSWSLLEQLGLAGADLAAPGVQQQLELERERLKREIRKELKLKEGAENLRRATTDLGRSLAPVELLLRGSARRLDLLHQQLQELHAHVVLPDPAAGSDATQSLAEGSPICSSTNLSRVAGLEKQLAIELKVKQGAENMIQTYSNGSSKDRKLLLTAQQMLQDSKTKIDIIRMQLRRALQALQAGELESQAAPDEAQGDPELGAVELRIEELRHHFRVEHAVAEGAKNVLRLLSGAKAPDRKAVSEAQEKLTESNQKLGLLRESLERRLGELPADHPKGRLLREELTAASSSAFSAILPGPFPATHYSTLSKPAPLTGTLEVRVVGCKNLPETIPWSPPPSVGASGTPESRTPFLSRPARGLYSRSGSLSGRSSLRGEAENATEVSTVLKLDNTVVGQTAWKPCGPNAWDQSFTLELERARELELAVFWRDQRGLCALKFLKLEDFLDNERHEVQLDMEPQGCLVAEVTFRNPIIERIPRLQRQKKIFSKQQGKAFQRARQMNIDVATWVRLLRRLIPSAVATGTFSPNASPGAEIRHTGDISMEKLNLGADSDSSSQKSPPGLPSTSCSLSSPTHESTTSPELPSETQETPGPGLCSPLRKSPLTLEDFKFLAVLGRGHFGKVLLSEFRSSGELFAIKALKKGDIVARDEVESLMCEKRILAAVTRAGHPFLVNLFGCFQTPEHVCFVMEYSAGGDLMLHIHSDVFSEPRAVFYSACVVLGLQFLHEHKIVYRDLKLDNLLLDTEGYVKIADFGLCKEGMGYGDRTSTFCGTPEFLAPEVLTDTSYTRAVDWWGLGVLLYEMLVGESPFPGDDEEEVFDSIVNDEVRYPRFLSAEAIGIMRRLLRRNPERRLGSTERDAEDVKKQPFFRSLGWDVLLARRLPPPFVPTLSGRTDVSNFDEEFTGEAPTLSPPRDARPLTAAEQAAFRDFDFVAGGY
UniProt Q15418: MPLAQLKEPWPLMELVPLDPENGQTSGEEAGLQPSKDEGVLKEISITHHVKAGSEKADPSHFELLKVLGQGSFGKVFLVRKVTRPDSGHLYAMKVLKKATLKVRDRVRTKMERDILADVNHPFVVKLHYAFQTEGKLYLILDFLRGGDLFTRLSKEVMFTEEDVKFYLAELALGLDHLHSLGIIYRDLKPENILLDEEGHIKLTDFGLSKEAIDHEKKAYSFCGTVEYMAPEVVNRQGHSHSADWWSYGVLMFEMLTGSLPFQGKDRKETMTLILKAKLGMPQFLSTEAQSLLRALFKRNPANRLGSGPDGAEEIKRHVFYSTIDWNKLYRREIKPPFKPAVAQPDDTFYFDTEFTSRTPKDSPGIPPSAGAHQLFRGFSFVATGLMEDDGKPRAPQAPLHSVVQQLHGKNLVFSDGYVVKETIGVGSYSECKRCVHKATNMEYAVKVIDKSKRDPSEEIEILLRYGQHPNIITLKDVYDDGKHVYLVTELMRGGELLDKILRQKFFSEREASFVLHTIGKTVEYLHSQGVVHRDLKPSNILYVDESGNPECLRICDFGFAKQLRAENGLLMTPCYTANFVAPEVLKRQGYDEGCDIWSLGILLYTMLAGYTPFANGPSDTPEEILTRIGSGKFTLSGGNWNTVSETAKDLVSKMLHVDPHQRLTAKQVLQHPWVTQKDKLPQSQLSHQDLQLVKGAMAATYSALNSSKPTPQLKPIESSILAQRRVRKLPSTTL
UniProt P18653: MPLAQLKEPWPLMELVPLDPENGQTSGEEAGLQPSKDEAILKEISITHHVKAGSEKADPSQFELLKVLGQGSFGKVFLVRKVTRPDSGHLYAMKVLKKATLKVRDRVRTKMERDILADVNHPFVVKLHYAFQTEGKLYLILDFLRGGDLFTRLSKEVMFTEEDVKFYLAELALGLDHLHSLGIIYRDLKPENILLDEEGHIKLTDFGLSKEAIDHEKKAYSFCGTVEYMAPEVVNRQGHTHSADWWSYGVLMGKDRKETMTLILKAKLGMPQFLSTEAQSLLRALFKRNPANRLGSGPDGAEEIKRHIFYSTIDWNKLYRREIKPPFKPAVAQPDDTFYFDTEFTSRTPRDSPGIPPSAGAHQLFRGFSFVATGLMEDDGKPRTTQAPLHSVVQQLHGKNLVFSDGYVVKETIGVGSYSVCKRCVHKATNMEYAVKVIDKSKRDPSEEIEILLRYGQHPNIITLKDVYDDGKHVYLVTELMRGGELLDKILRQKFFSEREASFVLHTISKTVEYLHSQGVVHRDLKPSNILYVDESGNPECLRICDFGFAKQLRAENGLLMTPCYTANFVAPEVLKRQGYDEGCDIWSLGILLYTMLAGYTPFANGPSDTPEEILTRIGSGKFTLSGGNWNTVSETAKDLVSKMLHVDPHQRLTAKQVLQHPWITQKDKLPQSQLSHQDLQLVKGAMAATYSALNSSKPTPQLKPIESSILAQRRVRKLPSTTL
UniProt P46940: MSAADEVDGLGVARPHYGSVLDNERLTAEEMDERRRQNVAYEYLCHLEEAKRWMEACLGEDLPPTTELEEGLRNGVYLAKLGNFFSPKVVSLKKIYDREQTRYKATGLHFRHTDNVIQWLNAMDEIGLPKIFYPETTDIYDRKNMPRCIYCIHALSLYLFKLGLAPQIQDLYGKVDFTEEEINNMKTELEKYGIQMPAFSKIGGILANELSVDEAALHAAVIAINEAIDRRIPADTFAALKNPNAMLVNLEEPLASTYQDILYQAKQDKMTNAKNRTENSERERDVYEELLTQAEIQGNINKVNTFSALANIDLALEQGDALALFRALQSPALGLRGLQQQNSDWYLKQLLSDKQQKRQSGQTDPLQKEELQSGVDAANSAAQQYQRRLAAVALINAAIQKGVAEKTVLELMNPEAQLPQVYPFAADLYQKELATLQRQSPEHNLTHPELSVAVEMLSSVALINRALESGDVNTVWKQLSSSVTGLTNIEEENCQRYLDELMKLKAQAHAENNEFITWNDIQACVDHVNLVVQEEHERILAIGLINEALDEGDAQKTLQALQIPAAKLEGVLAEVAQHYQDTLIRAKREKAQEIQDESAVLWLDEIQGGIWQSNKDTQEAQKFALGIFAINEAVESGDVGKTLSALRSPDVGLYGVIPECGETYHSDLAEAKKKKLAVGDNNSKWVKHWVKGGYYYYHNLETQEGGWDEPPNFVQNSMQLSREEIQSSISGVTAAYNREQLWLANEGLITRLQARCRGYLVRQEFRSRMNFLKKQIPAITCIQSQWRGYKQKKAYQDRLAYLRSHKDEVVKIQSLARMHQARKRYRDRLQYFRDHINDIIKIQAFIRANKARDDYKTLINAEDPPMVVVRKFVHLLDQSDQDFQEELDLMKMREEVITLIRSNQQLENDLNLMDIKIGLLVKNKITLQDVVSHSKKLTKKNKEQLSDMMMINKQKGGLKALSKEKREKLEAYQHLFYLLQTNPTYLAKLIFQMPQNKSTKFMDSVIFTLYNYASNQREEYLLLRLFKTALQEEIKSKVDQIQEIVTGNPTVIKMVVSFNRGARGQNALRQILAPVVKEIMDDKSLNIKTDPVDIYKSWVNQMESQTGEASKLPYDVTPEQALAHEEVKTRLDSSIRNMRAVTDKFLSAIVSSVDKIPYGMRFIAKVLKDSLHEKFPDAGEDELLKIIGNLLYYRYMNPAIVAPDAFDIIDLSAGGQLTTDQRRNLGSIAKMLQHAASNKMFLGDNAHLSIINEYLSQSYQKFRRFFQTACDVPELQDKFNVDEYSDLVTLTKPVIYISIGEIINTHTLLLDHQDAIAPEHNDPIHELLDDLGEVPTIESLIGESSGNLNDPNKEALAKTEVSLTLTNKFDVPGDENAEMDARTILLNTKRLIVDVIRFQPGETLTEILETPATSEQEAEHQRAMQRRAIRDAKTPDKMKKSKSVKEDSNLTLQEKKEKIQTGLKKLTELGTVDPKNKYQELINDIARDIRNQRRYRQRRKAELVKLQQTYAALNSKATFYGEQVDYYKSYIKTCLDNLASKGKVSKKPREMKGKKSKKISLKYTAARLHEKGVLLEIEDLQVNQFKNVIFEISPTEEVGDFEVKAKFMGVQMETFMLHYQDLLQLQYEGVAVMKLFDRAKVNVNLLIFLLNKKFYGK
UniProt Q9JKF1: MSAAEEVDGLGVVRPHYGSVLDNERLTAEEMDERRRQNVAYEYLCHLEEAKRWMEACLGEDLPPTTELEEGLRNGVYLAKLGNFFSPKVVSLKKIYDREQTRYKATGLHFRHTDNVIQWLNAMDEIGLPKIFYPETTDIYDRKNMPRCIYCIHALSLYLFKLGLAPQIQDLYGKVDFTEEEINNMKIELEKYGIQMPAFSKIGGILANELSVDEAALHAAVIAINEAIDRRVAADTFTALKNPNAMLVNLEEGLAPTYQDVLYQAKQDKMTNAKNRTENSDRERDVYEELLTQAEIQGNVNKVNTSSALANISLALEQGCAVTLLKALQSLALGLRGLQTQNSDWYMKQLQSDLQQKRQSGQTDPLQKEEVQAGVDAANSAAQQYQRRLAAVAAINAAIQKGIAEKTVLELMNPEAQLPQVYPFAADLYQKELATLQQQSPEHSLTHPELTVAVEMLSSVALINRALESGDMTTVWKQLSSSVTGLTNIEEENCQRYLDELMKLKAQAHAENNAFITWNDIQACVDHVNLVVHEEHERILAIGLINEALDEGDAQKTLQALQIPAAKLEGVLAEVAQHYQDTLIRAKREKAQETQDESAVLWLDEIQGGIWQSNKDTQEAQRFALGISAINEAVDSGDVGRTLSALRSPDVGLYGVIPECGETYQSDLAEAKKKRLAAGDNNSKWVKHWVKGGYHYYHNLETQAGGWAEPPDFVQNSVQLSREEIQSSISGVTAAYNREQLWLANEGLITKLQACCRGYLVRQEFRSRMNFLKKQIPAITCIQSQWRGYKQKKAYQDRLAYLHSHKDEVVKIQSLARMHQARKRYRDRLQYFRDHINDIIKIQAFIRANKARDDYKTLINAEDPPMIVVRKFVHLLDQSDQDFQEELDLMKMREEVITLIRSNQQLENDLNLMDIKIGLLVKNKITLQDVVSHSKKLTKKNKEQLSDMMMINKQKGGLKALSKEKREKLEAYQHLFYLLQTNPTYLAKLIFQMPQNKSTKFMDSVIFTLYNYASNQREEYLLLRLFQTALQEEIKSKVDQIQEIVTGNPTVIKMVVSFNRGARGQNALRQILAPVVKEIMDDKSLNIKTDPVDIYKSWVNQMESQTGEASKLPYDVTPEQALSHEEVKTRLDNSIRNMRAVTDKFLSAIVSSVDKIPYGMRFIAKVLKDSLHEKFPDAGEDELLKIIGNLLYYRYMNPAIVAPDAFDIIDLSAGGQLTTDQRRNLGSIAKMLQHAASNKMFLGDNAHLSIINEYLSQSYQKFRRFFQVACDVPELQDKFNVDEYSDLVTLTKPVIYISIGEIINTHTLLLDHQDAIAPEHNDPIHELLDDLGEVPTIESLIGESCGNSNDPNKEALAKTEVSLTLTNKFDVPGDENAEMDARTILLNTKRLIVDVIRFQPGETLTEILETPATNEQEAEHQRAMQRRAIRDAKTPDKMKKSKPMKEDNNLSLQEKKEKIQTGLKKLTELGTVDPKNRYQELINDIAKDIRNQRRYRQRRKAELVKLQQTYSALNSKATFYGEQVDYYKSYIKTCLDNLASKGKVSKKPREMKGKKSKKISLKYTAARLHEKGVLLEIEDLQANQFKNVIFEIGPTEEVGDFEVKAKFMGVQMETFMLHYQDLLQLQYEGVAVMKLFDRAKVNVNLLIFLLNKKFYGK

B1: Pyrin (mouse, BMDM) (protein, UniProt Q9JJ26 1-767)
chain: MAKTLGDHLLNTLEELLPYDFEKFKFKLQNTSLEKGHSKIPRGHMQMARPVKLASLLITYYGEEYAVRLTLQILRATNQRQLAEELRKATGTEHLIEENRVGGSVQSSVENKAKSVKVPDVPEGDGTQQNNDESDTLPSSQAEVGKGPQKKSLTKRKDQRGPESLDSQTKPWTRSTAPLYRRTQGTQSPGDKESTASAQLRRNVSSAGRLQGLYNNAPGRRESKKAEVYVYLPSGKKRPRSLEITTYSREGEPPNSEVLPTQEETRNGSLIRMRTATLNGRTTGALEKGTGIPEHSMVLDEKTFRNMSSKTSLIGEERCPTSWTENGNGSPETTESSGETAGSILSDPEVPLSLCEKPAKTPEDPASLGQAACEGRSQDKAVCPLCHTQEGDLRGDTCVQSSCSCSIAPGDPKASGRCSICFQCQGLLARKSCEAQSPQSLPQCPRHMKQVLLLFCEDHREPICLICRLSLEHQGHRVRPIEEAALEYKEQIREQLERLREMRGYVEEHRLQGDKKTDDFLKQTEIQKQKISCPLEKLYQLLEKQEQLFVTWLQELSQTISKVRETYYTRVSLLDEMIEELEAKQDQPEWDLMQDIGITLHRAKMMSASELLDTPPGVKEKLHLLYQKSKSVEKNMQCFSEMLSSEMAFSASDVAKWEGRQPSATQVQGLVPTVHLKCDGAHTQDCDVVFYPEREAGGSEPKDYLHPQPAQDTPELHEIHSRNNKRKFKSFLKWKPSFSRTDWRLRTCCYRDLDQAAAHPNLIFSMI

These molecules were tested against Yersinia pestis effector YopM (Y. pestis) (UniProt P17778) (assay: co-IP).
In the case of “PKN1 kinase (human, THP-1) (from UniProt Q16512 1-942) (enzyme)”, the binding is reported as “binds”.
With “PKN1 kinase (mouse, BMDM) (from UniProt P70268 1-946) (enzyme)” the binding was “binds”.
“RSK1 kinase (human, THP-1) (from UniProt Q15418 1-735) (enzyme)” was tested, and the binding was “binds”.
With “RSK1 kinase (mouse, BMDM) (from UniProt P18653 1-724) (enzyme)” the binding was “binds”.
For “cytoskeletal scaffolding protein Iqgap1 (human, THP-1) (from UniProt P46940 1-1657)”, the binding was “binds”.
With “cytoskeletal scaffolding protein Iqgap1 (mouse, BMDM) (from UniProt Q9JKF1 1-1657)” the binding was “binds”.
With B1 the binding was “binds”.
